# Results deposited as PubChem BioAssay AID1259425 (University of Nebraska Medical Center, 2018).
# Aim: 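Seek colon cancer weak points whose silencing resembles KSR1 loss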 (primary screen)
# System: HCT116 human colon cancer cells
# Reagent: siRNA pool against human genes, 50 nM siRNA
# Detection: 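After 50 nM siRNA pool, branched-DNA assay measures six marker transcripts per well, minus blank, normalised to the geometric mean of two housekeeping transcripts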
# Scale: BNIP3L mRNA: higher = more BNIP3L transcript after knockdown; NDRG1 mRNA: higher = more NDRG1 transcript after knockdown; BNIP3 mRNA: higher = more BNIP3 transcript after knockdown
# In all, the deposit lists about 14,000 reagents; shown is a random part of them. Further read-outs or replicates are left out here. Not stated in the record: the time to read-out.
gene,"BNIP3L mRNA, set 1","NDRG1 mRNA, set 1","BNIP3 mRNA, set 1"
TAGLN2,0.172,0.161,0.441
LSM10,0.0737,0.282,0.262
NFKBIB,0.113,0.166,0.278
DUS2,0.0619,0.132,0.19
MYH14,0.274,0.307,0.384
SPP1,0.192,0.387,0.239
SHARPIN,0.0723,0.241,0.122
ADAM29,0.1,0.0704,0.547
EBF4,0.106,0.219,0.327
BCL2L10,0.102,0.186,0.198
CHCHD7,0.2,0.45,0.32
QPRT,0.109,0.0797,0.457
SPOCK3,0.146,0.262,0.426
AP3S1,0.0738,0.322,0.215
DHRS4,0.106,0.433,0.184
RPL27,0.48,1.28,0.532
DNAJC1,0.0812,0.261,0.347
GGT1,0.165,0.156,0.286
SFRP1,0.108,0.112,0.296
IGSF21,0.21,0.288,0.434

2 of these entries, reformatted:
| gene | BNIP3L mRNA, set 1 | NDRG1 mRNA, set 1 | BNIP3 mRNA, set 1 |
| --- | --- | --- | --- |
| CHCHD7 | 0.2 | 0.45 | 0.32 |
| QPRT | 0.109 | 0.0797 | 0.457 |
